According to article PMC13324451 (The Journal of Biological Chemistry, 2026):

B1: Uncharacterized protein (CV_3151) (protein, UniProt Q7NTA8 1-519)
chain: MTADSIRFELTPPYRHDGKPARFQSLWLLARLHYAAAHEDGMVAVSALRQRFPASRTPRMLVSRAFADFAAWGVEVGWGAPPSESIALLNPDGRSRGPFWLSAAGHARLGFLVDGKPADRRQLELFLGLAPWPSSEPDAARLDTLSHNLDYWSQLTQAIRDERDGMGRLAGPQVAASFHAASLAARNDFQQALALTKESLAWRRSAQFDDSRLALKKLGRVLDGRRFETAQPTFAAMACIARAWDHYARGESVSAEACLGQLLGPGELQPVYRYNPRVRFECLNLGALLHKQAAIAERAPERAEAALRDLAGALEAAYEADSIDAAQHVAANLGWCLWLFWQQQLIDPLRVLRMADMQRLAMRWLGLSEWICDRFGVGNGSAWNVVFLLRIARGDCLHAKRPSLAGFRSAKPFPLQDLRDALALSPCPFSAAKGYRSWAAVAEVTLEEHDQGRLPLTPLQLANLLLETLWFQAWEDGLSRRACGNAQRLKLLLPHLRRSERSFFRAEMAALPPELLESG
B2: DUF4123 domain-containing protein Tap-1 (CV_0015) (protein, UniProt Q7P246 1-304)
chain: MSAFRLLVESRLQTLQQGNRAYLLLDGSVLNRKQRKLFSLLPLFADTGLSSVIEDGPQWLDVDTLSDTRWAVLEALLSNFPQPLQLVLSKHELSDLNAHYQRQLDGFDVGNKQLIWFHFYQATVLPILHRELPDEYRAVLFGPVAEWWVLDRGNEWQKLTGDNAGMVINPYRHPFHGEVFPLSAELAQALNDERLTDDVYQWLRHHLPDTLPKIQWHALARIQEMVEYARAAYALTDINAILSWCILAMLTVEDVDQKIPEIAQRMHEAGSGEGVPVNWLTYGLSDPAKVKLEEFFQARKQALM
B3: Flagellar biosynthesis protein FlhF (protein, UniProt Q7NZ98 1-479)
chain: MVVKKFFGKTTRDALRQVREELGADALILSNRPTMGGGVEIMAVADADVANLASTLSTSSSKHPPRNAPPAVNRPQQPAPIPQANGSAMNRAIARTYAMPVEPLESPAPPRLDAAPPRVEPTYAPPQPVAQPLMQPAAQPIPRAAPRPPAPEPAAPHANGEEQEQMAQELRQIGDEIKLLRSLLQSQLASFAWSDMEGKAPNRLELFKHLLAMGFSAQLIRQLIEKMPAQYQAEVAVKWARSALAHNLKCADADREVMDRGGIFALVGPTGVGKTTTVAKLAARATMRFGAQHVALITTDSYRIGAQDQLRIYGKILGVPVFSIQNEGDLQLTLADLSNRHIVFIDTVGMGQRDARVLAQIDMLRTAGRPIERLLLLAANTDGHTLEDVVKRYRGDGLAGCILSKIDEAVAQGPSLDVIIRNRLKLYYVTNGQRVPEDLHSANAAFLVDRAMRAQQIASPFALQADEMSIMQAAQAGWL
B4: Tle1 phospholipase (CV_0012) (protein, UniProt Q7P249 1-512)
chain: MQDWSDSSFETQMQAAQKRQELHPLLAGCPTCEQKPWISVFFDGTGNNGEIDADKKKWSNIYRLFQGHADDQTRGIFPIYIPGPGTPLSVSNAGWLSKLRDSGALGGGFGLGMDARMDKAFKLFSRNLADCQRVSRIDIAIFGFSRGATLARAWINLLLKECIWEKGKPHWRMLNAKNGVSAEICIRYVGLFDTVESVGMVAKNWSPSQCMTLPNVVERCVHYVSAHELRGAFPLTTVADTAGAPPGEERVWPGMHSDVGGGYRPNEQGRFDTLSRLPLNAMRLDAYLAGVPFLSPAELKGNMVENKHVFDYFEYDAELKNLYDHYKSQISDASSDLDRTIISHMKLYYGWMKLRQDGDIDSLYGKVREERADLAKELENELSDQRKYLRKIPFENLSRKENVEWARLKISDFRKYREKLESARETYGKNFRPYELNSRQLTYWDAWEKSVVPDEKITKFFDFYVHDSRAGFTFNSGDYLEPREVLERKVCSVEPARRGKQIAASNIGVDHQ
B5: DUF4123 domain-containing protein Tap-1 (CV_3974) (protein, UniProt Q7NR11 1-257)
chain: MTAPSPEAWLYMLLQTARELELPWLDLIVDQAEMGARWQSRVGALYPPRMLLQDTPHAEAADEGPVLVRLDANQPQTRLLKLLRQWQGQPRVLALFSGWDYDQLAERLTLCMQASWDKGLQQGVLRFHDPRLFAAVVDALDEPRRQLLLEPAVQWHWLDRDGHARMLDATALQSLPPLEWVHDTLTLEQPHIDALACWHLAETWRQNHLLVPQLYGLDSEEELVRRLAQAHQAADKAKLWSEAERIPVVERMLRENA
B6: Tle5 phospholipase (CV_1234) (protein, UniProt Q7NYN9 1-656)
chain: MSQPLAKHKPRQHNVDPSQHQTTRTSTPWFLADDHPVGYKPEFHEVNATFEPLINGERAFGAIYDAILAAKHSVDIVCWGFQPSMYFKRGAGAPPIQYYLQQPQLPPLTADNIDKIADDMAGKLPFTRRKLHPKDKIMPIGELLEMKSLEGVKVRILTWNDPISQIPEVMNPGYNVKRGDNENFLQECYDIGWHQDIRANKNIQFRTRHFDDIDKNAYILPNLVRNGASTMHAAATSKFPSHHQKTVLIDYEHPESALGFVMGHNMLDAYWDRDDHHYVQQEPHLGRNGATARHDISSRLTGPVLVHVNHNFVAGWDKATGENLTGKRAHLELKHFTPRPNLGSRAMAQIARTQSQTRPKGKVKDELTVQDIKHLYLNAVNHACQYIYIENQYFRWVNFAEATKQAVKNQLAFGRDPGQHGPVYLMVVTNDNAEGMGLGVKNTYKMLDALGKRSQMPTLARSSINEQVKQAEREVQIGENQNAKRTSKPLSDLPERRKKLAALKQEQAEANQGKFVDGDIPGLKTHVCSLVSMTGYQQGQPWQYVYIHAKLMMIDDTFMTLGSANINLRSMVCDSEINVCHCQPDITRAARQHLWNMHTVGQGNTADASKPQPLADVYDRWERIMKANQKNRQSKRAPIAPLVKFSNDTSSTKDLD
B7: DUF4123 domain-containing protein Tap-1 (CV_3987) (protein, UniProt Q7NQZ8 1-291)
chain: MYFAMDKGDVASLANALAEQIDASPMEWNWYALMDAGFDYNHRPLQLATANWPLYFQPEWGELRAVSPLLIDCPRQNNAIPAKLLRHCQGRPMLGFVASVLDVETLRDIWQRSLSLTTADGQPYILRFADTRIAATLSQTLSPPSWRRLCAPLTHWLIIDRAGTLQALDLAPSHLAVDEKDSWELTEPELAGLLRSAEPDALANRLSQDFAELLPASGAFLHHCLQRSCAALEEHHIENAPDQLMLAVAACLSQGRILDDPRLSQVLQSHALQKDGLGENLASLLDDISAL
B8: PAAR domain-containing protein (CV_2124) (protein, UniProt Q7NW66 1-178)
chain: MVISAAMKPVIRLGDPTSHGGKVVSASSTTTMFGKAVALVGDSVTCPQQGHTNCVIVEGDPTWTVGGKGVALDGHAVSCGAKLISTLGSVMRSYEGSGAAIVGAAASTSAAIQLAESKDEDLEYFFVAQRDDGSPAKLAYRIDSGDEKLHEGELCGEGKTSAFPMNKAGEPTFWIPMV
B9: PAAR domain-containing protein (CV_2664) (protein, UniProt Q7NUN3 1-198)
chain: MENPRIFLHLAPTMSKPIIRLGDKTDHGGTVLEAFPTLVIFGKPAAGVGHKVSCPKCKGTFVIVEGAANTSFMGKNVAIEGMKTSCGATLIASQGQSTINVDSGAAAAVTSSPAQIASALTAASASEKLFDQHFIVHDKNGAPLPNWPYTIELANGHTISGKTDDMGKTSKVSSDAADSVTLHVYEPEPTPINPHWDQ
B10: VgrG4 (protein, UniProt Q7NYP0 1-963)
chain: MDLNALLASFASAFSQEQRLISLEFGGGHIASEQLLPLSLDGEEGISRSYRYTLTCLSPDGNIELKTLLGQPARIGIQDADGDETIRCGVVSQAKLAGSDGGFAKYELTIEPPFALLRHRRTSRVFQDLSVPDIVKQIIGEHQAANPAFARVQTLGIQVKPAQPRSYTLQYRESDFDFIVRLIHEEGYAWRFLHLDDDGPQVELAIFDDAHSLPGSKLERVRFHRSDASEEEDGLTGWEAARQIVPGGTALASYDYKSVYALQSGDQSRIDQGQAGQSLQSSLRHYDAPGLYYAGDEEQLGQYAALRQQANDLQAKSFSGTGSVRGLLPGEWFRLDEHPAHDSDAPASREFVVTGQSFQARNNLPTDLAQHIGAEQDAAPFTTSIQAQRRGIPLTPAYAGTAHAKPTSQGAQTATVVGPAGEEVHTDEQGRVKVQFHWQRQEEHPTIGAGMDDKSSCWLRVAMPSAGAAWGHQFIPRIGQEVLVNFIEGDIDRPLITGVLYNGSHPPPDFSGAGALPANKTLSGIKSKEHQGGAYNELLFDDTPGEVRAKLSSELGKTQLNQGFLTHPRSNGKAQPRGEGFELRTDQHGAIRAAHGLLLSTEAQNGASGKQLAREHAQSQLQSAVALSQALAETATGQLADTMETGPDGIGEDNAKAGKKAKGHMQHQLDALAAWEAGSNTDKDGKTAKGQAGQQPQLVLSGPAGIASVTEQSQTLAAGANLNLVVQRDANHTTGRRWVHNVGKHISLFVAGIKDNTAMKLIAAKGKVQILAQSDAMEWTADKDVTITSCKDSITIAAKEEILLNVGGGAYIRLAGGNIEVHCPGTVSVKGAQHNLSGPDKMTVAHPAFPKNIPKQNIGLKVNHSFVEGDHAVPGMPFKLYADGAMIKQGVLDETGHLPVEHNVLTQKYTLELANGIKRHFNMVPSYAKPPHDELANGGINHGEQSDKLDQYQDFFGGKGEQA

biological target: T1, VgrG3 with a C-terminal haemagglutinin epitope tag (VgrG3-HA) (Chromobacterium violaceum ATCC 12472) (UniProt Q7NY43); experiment: affinity purification with mass spectrometry; VgrG3-HA precipitated with HA-tag rabbit mAb magnetic beads from the soluble fraction of C. violaceum vgrG3-HA cells (untagged wild type as control); 16 h at 4 °C; 20 mM Tris-Cl pH 7.5, 150 mM NaCl, 0.5 mM EDTA, 0.1% Triton X-100; label-free quantitative MS, biological triplicates
T1 sequence: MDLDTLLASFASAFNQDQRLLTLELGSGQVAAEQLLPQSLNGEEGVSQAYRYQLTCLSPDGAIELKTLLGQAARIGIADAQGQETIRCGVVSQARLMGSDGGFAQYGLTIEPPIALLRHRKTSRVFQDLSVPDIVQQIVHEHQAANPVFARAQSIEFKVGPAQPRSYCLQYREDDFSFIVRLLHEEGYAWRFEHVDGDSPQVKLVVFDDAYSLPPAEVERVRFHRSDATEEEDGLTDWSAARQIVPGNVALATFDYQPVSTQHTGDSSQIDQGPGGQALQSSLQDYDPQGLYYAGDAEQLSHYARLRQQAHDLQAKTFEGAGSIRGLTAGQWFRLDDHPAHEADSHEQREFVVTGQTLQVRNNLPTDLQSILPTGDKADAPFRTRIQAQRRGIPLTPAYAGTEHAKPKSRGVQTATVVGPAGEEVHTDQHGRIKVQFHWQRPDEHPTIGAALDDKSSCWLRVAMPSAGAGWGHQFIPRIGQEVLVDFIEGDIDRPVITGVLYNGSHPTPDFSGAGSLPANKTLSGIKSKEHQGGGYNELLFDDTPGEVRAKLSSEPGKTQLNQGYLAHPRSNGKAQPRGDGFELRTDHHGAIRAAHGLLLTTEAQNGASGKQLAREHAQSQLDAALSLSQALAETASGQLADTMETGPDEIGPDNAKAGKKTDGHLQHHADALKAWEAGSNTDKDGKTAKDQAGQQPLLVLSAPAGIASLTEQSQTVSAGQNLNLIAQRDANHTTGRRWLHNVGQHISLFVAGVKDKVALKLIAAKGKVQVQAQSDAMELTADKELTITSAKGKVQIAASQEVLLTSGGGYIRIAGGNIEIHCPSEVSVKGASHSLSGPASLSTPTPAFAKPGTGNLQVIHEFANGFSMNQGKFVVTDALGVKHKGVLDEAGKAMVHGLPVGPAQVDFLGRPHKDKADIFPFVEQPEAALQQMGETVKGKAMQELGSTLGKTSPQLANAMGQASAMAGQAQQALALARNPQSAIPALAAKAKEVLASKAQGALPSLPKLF

How did the binding turn out when B1 was run?
Its binding is “binds”.

Which binding does the source give for B2 here?
The binding was “binds”.

For B3, which binding is on record?
The binding was “binds”.

B4 was tested. Which binding did it give?
The binding was “binds”.

How did the binding turn out when B5 was run?
The binding was “binds”.

Which binding does the source give for B6 here?
The binding was “binds”.

For B7, which binding is on record?
The binding was “binds”.

B8 was tested. Which binding did it give?
Its binding is “binds”.

With B9 as the binder, how does the binding read?
The binding was “binds”.

How did the binding turn out when B10 was run?
Its binding is “binds”.

These are yes or no findings as the source states them, for the method shown. Binding seen in cells or lysates may run through a third protein. Here binding means that the protein was enriched with, or labelled near, the bait; the list need not be complete. Sequences can lack the tags named with a protein.
